Measurements as given in the supplement of paper PMC12889115.
This is one part of the list. Values are raw readings; no control value is given beside them.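 First-pass screen: polymyxin B was added at a level that permeabilizes the Salmonella outer membrane while sparing the inner membrane. DMSO wells, with and without polymyxin B, defined maximum growth. Because plates differed from one another, each plate's data were ranked separately and the compounds with the lowest OD600 were carried forward as hits.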

System: Salmonella enterica serovar Typhimurium SL1344
Experiment: bacterial growth OD600 after 18 h with compound and polymyxin B; higher = more bacterial growth (less inhibition)
Conditions: 50 µM, Mueller-Hinton broth

SMILES	bacterial growth OD600 (polymyxin B 1 µg/mL)	bacterial growth OD600 (polymyxin B 0.75 µg/mL)
COc1cccc(-c2nc3ccc(C(=O)NC(C)c4cn(C)nc4C)cc3o2)c1 (stereo unspecified)	0.873	–
O=C(c1ccc(N2CCC(NCC3(N4CCOCC4)CCCCC3)CC2)cc1)N1CCCC(O)C1 (stereo unspecified)	–	0.727
c1ccc(Cc2noc(-c3ccc(N4CCN(CC5CC5)CC4)nc3)n2)cc1	–	0.849
COc1cccc(CCC(=O)N2CCCC(Nc3ccc(F)cc3)C2)c1 (stereo unspecified)	1.25	–
CC1(C2CCN(C(=O)Cc3ccc(Cl)cc3)CC2)NC(=O)N(C2Cc3ccccc3C2)C1=O (stereo unspecified)	–	0.003
CSCCC(=O)N1CCCC(C(=O)Nc2ccc(-c3cccc(F)c3)cc2)C1 (stereo unspecified)	0.74	–
COC(c1ccc2c(c1)CN(C(=O)c1csnn1)CCO2)C1CCCCC1 (stereo unspecified)	–	0.054
O=C(Nc1ccc(-c2ccco2)cc1)C1CCCN(Cc2ccc3nonc3c2)C1 (stereo unspecified)	–	0.375
CSCc1ccc(C(=O)N2CCOC(CCc3ccccc3)C2)o1 (stereo unspecified)	–	0.543
Cc1cccnc1-c1cccc2c1OC(CNC(=O)C(C)(C)C)C2 (stereo unspecified)	–	0.835
CCCn1cc(CN2CCc3onc(-c4cccc(F)c4)c3C2)c(C)n1	–	0.93
COc1ccc(CC2CN(C(=O)CCSC)CCO2)cc1 (stereo unspecified)	–	0.712
COc1cccc(CN2CCCC3(CCN(S(=O)(=O)N(C)C)C3)C2=O)c1 (stereo unspecified)	0.896	–
C=C(C)CNC(=O)C1CCC(=O)N(CCc2cccc(F)c2)C1 (stereo unspecified)	0.876	–
O=C(NCCN1CCOCC1)c1ccc(N2CCC(NCCOc3cccnc3)CC2)cc1	–	0.845
Cc1cccc(C2CCCN(C(=O)CC3(c4cccc(C(F)(F)F)c4)CC(=O)N(C4CC4)C3=O)C2)c1 (stereo unspecified)	–	0.057

SMILES	bacterial growth OD600 (polymyxin B 1 µg/mL)	bacterial growth OD600 (polymyxin B 0.75 µg/mL)
CN(CCc1cnn(C)c1)C(=O)c1cc(Cn2ccc3ccccc32)[nH]n1	0.908	–
Cc1nonc1C(=O)N1CCCC(C(=O)c2ccc(Oc3ccccc3)cc2)C1 (stereo unspecified)	0.658	–
CCOC(=O)N1CCN(Cc2ccc3c(c2)CN(C(=O)CCc2cnn(C)c2)CCO3)CC1	–	0.869
O=C1CC(NS(=O)(=O)N2CCCC2)CN1Cc1ccccc1Cl (stereo unspecified)	0.939	–
CCOc1cc(CN2CCC(C(Cc3ccccc3F)N(C)C(=O)c3ccsc3)CC2)ccc1O (stereo unspecified)	–	0.788
O=C(c1cc2c(nc1Cl)CCC2)N1CCCC(Nc2ccc(F)cc2)C1 (stereo unspecified)	0.803	–
c1cncc(CN(CC2CCN(C3CCCC3)CC2)CC2CCCO2)c1 (stereo unspecified)	0.888	–
CCOC(=O)C1(CCCc2ccccc2)CCN(Cc2nccn2CC)CC1	0.844	–
CCOC(=O)CNC(=O)N1CCC(CCOc2ccccc2)(C(=O)OCC)CC1	0.958	–
Cc1ccc2c(c1)CN(CCC(=O)NCC(c1cccnc1)N1CCCCC1)CC(C)O2 (stereo unspecified)	–	0.736
CCc1ccc(-c2cn3c(C(=O)N(CC)CCO)csc3n2)cc1	–	0.609
CC#CC(=O)N1CCCCC1C(=O)Nc1ccc(-n2nc(C)cc2C)cc1 (stereo unspecified)	–	0.775
CC(C)c1noc(-c2ccc(OCC3(C)CCCNC3)nc2)n1 (stereo unspecified)	–	0.791
COC(=O)[C@@H](NC1CCN(c2ccc(NC(=O)c3ccc(C)cc3C)cc2)CC1)C(C)C	–	0.834
C=CCCC(=O)NCc1cccnc1N1CCN(c2ccccc2C)CC1	0.499	–

Taken from above:
bacterial growth OD600 (polymyxin B 0.75 µg/mL), Cc1ccc2c(c1)CN(CCC(=O)NCC(c1cccnc1)N1CCCCC1)CC(C)O2 (stereo unspecified) reads 0.736
bacterial growth OD600 (polymyxin B 1 µg/mL), c1cncc(CN(CC2CCN(C3CCCC3)CC2)CC2CCCO2)c1 (stereo unspecified) reads 0.888
